Values from PubChem BioAssay AID686938 (Drosophila RNAi Screening Center, 2013)
In all, the deposit lists about 23,000 reagents; below is a random part of those with a known target gene and a result. Over the whole deposit, 75 (0.33%) were called active. 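Raw plate signals without normalisation; calls rest on plate z-scores that were not deposited; ratio present for only 364 wells.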 Entries without a mark were called inactive. A plus sign joins genes that one reagent is predicted to hit. The record does not give: the dose of the treatment.

- Purpose: 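Knock-downs reducing store-operated calcium influx in Drosophila cells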 (primary screen)
- Cells: Drosophila S2R+ cells
- Reagent: long dsRNA against Drosophila genes, about 0.25 µg dsRNA per well, roughly 10,000 cells
- Time to read-out: 5 days of knock-down before the calcium assay
- Challenge: thapsigargin (SERCA pump blocker) to empty calcium stores; entry signal taken 4 min after adding it
- Read-out: 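Per-well fluo-4 fluorescence in two replicates, unnormalised, measured in resting cells and 4 min after store depletion by the SERCA blocker thapsigargin; ratio of the two present in few wells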
- Reading the numbers: calcium entry signal: higher = stronger calcium signal after store depletion; resting calcium signal: higher = higher resting calcium signal
- Units: calcium entry signal in fluorescence units; resting calcium signal in fluorescence units
- Rule for the call: 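Hit if the duplicate-averaged plate z-score for entry over resting signal is under −3; wells with weak total dye signal (Fmax z < −2) or more than 5 off-targets removed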
- Meaning of the calls: active = strongly reduced calcium entry; inactive = no strong reduction

Ir67a [SID104189689] | calcium entry signal, replicate 1 = 2.83e7; calcium entry signal, replicate 2 = 3.25e7; resting calcium signal, replicate 1 = 1.48e7; resting calcium signal, replicate 2 = 1.41e7
CG43658 [SID104199247] | calcium entry signal, replicate 1 = 2.01e7; calcium entry signal, replicate 2 = 2.41e7; resting calcium signal, replicate 1 = 1.18e7; resting calcium signal, replicate 2 = 1.10e7
CG43658 [SID104199903] | calcium entry signal, replicate 1 = 2.08e7; calcium entry signal, replicate 2 = 2.21e7; resting calcium signal, replicate 1 = 1.17e7; resting calcium signal, replicate 2 = 1.01e7
Gdap1 [SID104190229] | calcium entry signal, replicate 1 = 2.94e7; calcium entry signal, replicate 2 = 4.37e7; resting calcium signal, replicate 1 = 1.50e7; resting calcium signal, replicate 2 = 1.82e7
Eip75B [SID104189318] | calcium entry signal, replicate 1 = 4.93e7; calcium entry signal, replicate 2 = 3.77e7; resting calcium signal, replicate 1 = 2.28e7; resting calcium signal, replicate 2 = 1.99e7
Eip75B [SID104190953] | calcium entry signal, replicate 1 = 4.69e7; calcium entry signal, replicate 2 = 6.27e7; resting calcium signal, replicate 1 = 2.16e7; resting calcium signal, replicate 2 = 3.71e7
Eip75B [SID104202404] | calcium entry signal, replicate 1 = 3.30e7; calcium entry signal, replicate 2 = 3.45e7; resting calcium signal, replicate 1 = 1.71e7; resting calcium signal, replicate 2 = 1.61e7
CG42538 [SID104189204] | calcium entry signal, replicate 1 = 3.80e7; calcium entry signal, replicate 2 = 3.91e7; resting calcium signal, replicate 1 = 1.76e7; resting calcium signal, replicate 2 = 1.87e7
rumi [SID104194969] | calcium entry signal, replicate 1 = 4.16e7; calcium entry signal, replicate 2 = 3.87e7; resting calcium signal, replicate 1 = 1.90e7; resting calcium signal, replicate 2 = 1.67e7
RpL7A [SID104198501] | calcium entry signal, replicate 1 = 1.05e7; calcium entry signal, replicate 2 = 1.13e7; resting calcium signal, replicate 1 = 8.52e6; resting calcium signal, replicate 2 = 8.79e6
HisCl1 [SID104194737] | calcium entry signal, replicate 1 = 2.93e7; calcium entry signal, replicate 2 = 3.67e7; resting calcium signal, replicate 1 = 1.29e7; resting calcium signal, replicate 2 = 1.64e7
CG33155 + mRpL53 [SID104185253] | calcium entry signal, replicate 1 = 5.36e7; calcium entry signal, replicate 2 = 6.71e7; resting calcium signal, replicate 1 = 2.36e7; resting calcium signal, replicate 2 = 2.34e7
CG42671 [SID104188885] | calcium entry signal, replicate 1 = 4.31e7; calcium entry signal, replicate 2 = 3.37e7; resting calcium signal, replicate 1 = 2.16e7; resting calcium signal, replicate 2 = 1.76e7
CG42671 [SID104190113] | calcium entry signal, replicate 1 = 2.98e7; calcium entry signal, replicate 2 = 4.71e7; resting calcium signal, replicate 1 = 1.59e7; resting calcium signal, replicate 2 = 2.23e7
CG33286 [SID104191483] | calcium entry signal, replicate 1 = 2.99e7; calcium entry signal, replicate 2 = 5.09e7; resting calcium signal, replicate 1 = 1.54e7; resting calcium signal, replicate 2 = 2.22e7
Rpn1 [SID104191066] | calcium entry signal, replicate 1 = 2.40e7; calcium entry signal, replicate 2 = 2.26e7; resting calcium signal, replicate 1 = 2.05e7; resting calcium signal, replicate 2 = 1.47e7
dve [SID104184472] | calcium entry signal, replicate 1 = 4.60e7; calcium entry signal, replicate 2 = 4.46e7; resting calcium signal, replicate 1 = 2.19e7; resting calcium signal, replicate 2 = 2.06e7
Sry-beta [SID104196660] | calcium entry signal, replicate 1 = 3.75e7; calcium entry signal, replicate 2 = 4.27e7; resting calcium signal, replicate 1 = 1.63e7; resting calcium signal, replicate 2 = 2.02e7
orion [SID104198005] | calcium entry signal, replicate 1 = 2.91e7; calcium entry signal, replicate 2 = 4.21e7; resting calcium signal, replicate 1 = 1.49e7; resting calcium signal, replicate 2 = 1.74e7
orion [SID104198006] | calcium entry signal, replicate 1 = 2.80e7; calcium entry signal, replicate 2 = 4.49e7; resting calcium signal, replicate 1 = 1.41e7; resting calcium signal, replicate 2 = 2.08e7
Creld [SID104180100] | calcium entry signal, replicate 1 = 4.91e7; calcium entry signal, replicate 2 = 5.10e7; resting calcium signal, replicate 1 = 2.35e7; resting calcium signal, replicate 2 = 2.26e7

A portion from the list above:
Gdap1 [SID104190229] | calcium entry signal, replicate 1 = 2.94e7; calcium entry signal, replicate 2 = 4.37e7; resting calcium signal, replicate 1 = 1.50e7; resting calcium signal, replicate 2 = 1.82e7
Eip75B [SID104189318] | calcium entry signal, replicate 1 = 4.93e7; calcium entry signal, replicate 2 = 3.77e7; resting calcium signal, replicate 1 = 2.28e7; resting calcium signal, replicate 2 = 1.99e7
